# The other results are listed elsewhere or left out. The main result of the screen is listed elsewhere. These columns were measured beside it and carry no call. Compounds called inactive in the main read-out are mostly missing here. Words in brackets tell the shape of the fitted curve; partial curves, single points and poor fits give uncertain potencies.
# Test: qHTS Assay for Lipid Storage Modulators in Drosophila S3 Cells;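 on cell number change: cells counted by Cell Tracker Red CMTPX staining in the red channel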
# Settings: BODIPY lipid droplet fluorescence, 18-24 h; for cell number change: measured here: cell count max response, cells fed with added oleic acid
# In short: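 Drosophila S3 cells loaded with oleic acid (400 uM, as added) and compounds at several concentrations; lipid droplets imaged by 488-nm laser-scanning cytometry, 500–530 nm intensity and object ratio to cell channel. Percent activity normalized to 20 uM Triacsin C.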
# [1] = measured here: lipid fluorescence (Fed channel) AC50, cells fed with added oleic acid
# [2] = measured here: cell number channel AC50, cells fed with added oleic acid
Structure (SMILES),cell number change [%],AC50 [1],AC50 [2]
Cc1cc(/C=C(\C#N)C(=O)N2CCOCC2)c(C)n1C1CCCC1,4.21,"0.13 µM [falling, full curve, poor fit]",–
CN1CCN(CC(=O)N(C)c2nc(-c3ccccc3)cs2)CC1,2.45,–,–
CC1CC(C)CN(c2ccc(C(=O)OCC(=O)NC3CCCc4ccccc43)cc2[N+](=O)[O-])C1 (stereo not drawn),-1.12,"32.6 µM [falling, partial curve, poor fit]",–
COc1ccc(CN(CC(=O)NC2CCCCC2)C(=O)CCC(=O)Nc2nccs2)cc1,-11.4,–,–
CC(C)c1ccc(NC(=O)NC2(C(=O)NCc3cccnc3)CCCCC2)cc1,4.03,"0.82 µM [rising, partial curve, poor fit]",–
COc1cc(CN2CCC(C(=O)N3CCCC(C)C3)CC2)cc(OC)c1O (stereo not drawn),-12.9,–,–
CC(=O)c1cccc(Nc2nc(-c3sc(N)nc3C)cs2)c1,-75.5,"0.651 µM [rising, single point]","11.6 µM [falling, partial curve]"
CCN1CCN(CCNC(=O)c2ccc(CS(=O)c3ccc(Br)cc3)o2)CC1 (stereo not drawn),–,–,"0.13 µM [falling, full curve, poor fit]"
COCCCNC(=O)/C(C#N)=C/c1c(N2CCN(c3ccc(OC)cc3)CC2)nc2c(C)cccn2c1=O,-49.6,"1.64 µM [falling, full curve]","11.6 µM [falling, partial curve]"
CCN(C(=O)CSc1nnc(-c2ccncc2)n1-c1ccccc1)C1CCS(=O)(=O)C1 (stereo not drawn),–,–,"0.00461 µM [falling, full curve, poor fit]"
CCOC(=O)Cc1csc(NC(=O)c2cc(C)cc(C)c2)n1,151,"2.31 µM [falling, partial curve]","5.17 µM [falling, single point]"
Cc1cc(N/N=C/c2cccc(Cl)c2)nc(-n2nc(C)cc2C)n1,-62.1,"9.2 µM [falling, partial curve, poor fit]","29.1 µM [falling, single point]"
COc1ccccc1N(C(=O)c1ccncc1)c1nc(-c2ccc([N+](=O)[O-])cc2)cs1,-10.2,"1.16 µM [rising, full curve, poor fit]",–
O=C1CSC(c2cn(-c3ccccc3)nc2-c2cc3ccccc3o2)N1Cc1ccccc1 (stereo not drawn),167,"23.1 µM [rising, partial curve]","3.26 µM [rising, partial curve]"
CCCOc1ccc(C(=O)C(CN2CCOCC2)c2ccccc2)cc1 (stereo not drawn),-36.8,"18.4 µM [falling, single point]","16.4 µM [falling, single point]"
Nc1[nH]n(-c2ccccc2)c(=O)c1N=Nc1ccc2ncsc2c1,-40.3,"29.1 µM [falling, single point]","16.4 µM [falling, single point]"
COc1ccc(Nc2c([N+](=O)[O-])ccc3c2=NC2(CCCCC2)N=3)cc1,–,"0.146 µM [falling, full curve, poor fit]",–
Cc1ccc(C(=O)OCC(=O)NCc2cccc(Cl)c2)cc1S(=O)(=O)N1CCCCC1,49.8,–,"7.31 µM [rising, partial curve]"

Structure (SMILES),cell number change [%],AC50 [1],AC50 [2]
COC(=O)c1ccc(Sc2nnnn2-c2ccccc2)c([N+](=O)[O-])c1,-23.3,"29.1 µM [falling, single point]",–
CCn1c(-c2ccc3[nH]c(C)c(C)c3c2)n[nH]c1=S,-15.4,"0.259 µM [rising, full curve]",–
CCC1C(c2ccccc2)N(C)C(c2ccccc2)CC1(O)c1ccccc1 (stereo not drawn),-51.9,"23.1 µM [falling, single point]","9.2 µM [falling, partial curve, poor fit]"
N#C/C(=C/c1ccc(CNC(=O)C(=O)Nc2cc(Cl)cc(Cl)c2)o1)C(=O)NCc1cccnc1,-3.06,"32.6 µM [falling, partial curve, poor fit]",–
O=S(=O)(Nc1ccc2c(c1)OCCO2)c1ccc(F)cc1,-37.6,–,"0.164 µM [falling, full curve, poor fit]"
COC(=O)c1ccc(CSc2nnc3sc4ccccc4n23)o1,-10.2,–,–
CSC(SC)=C(C#N)C(=O)c1ccccc1,-58,"29.1 µM [falling, single point]",–
COc1cccc(/C=N/NC(=S)NCCc2ccccc2)c1OC,2.93,–,"6.51 µM [falling, single point]"
COC(=O)c1c(NC(NC(=O)C(C)C)C(Cl)(Cl)Cl)sc2c1CCCC2 (stereo not drawn),30.5,–,"14.6 µM [rising, single point]"
COCC1CCN(C(=O)C2CCC(=O)N(CCc3cccc(F)c3)C2)CC1 (stereo not drawn),12.3,"10.3 µM [rising, partial curve, poor fit]",–
NC(=O)c1cc(S(=O)(=O)N2CC=C(c3ccccc3)CC2)cs1,-8.94,"29.1 µM [rising, single point]",–
CC(C)(C)NC(=O)C12CCC(C)(c3nc4ccccc4nc31)C2(C)C (stereo not drawn),–,"6.51 µM [rising, partial curve]","2.31 µM [rising, single point]"
Cc1ccc(CNC(=O)Cn2ncn3cccc3c2=O)cc1,28.8,"29.1 µM [rising, single point]",–
O=C(Nc1ccc(F)c(F)c1)C1CCCCC1,24.3,"0.103 µM [falling, full curve, poor fit]",–
NC(=O)CC(NC(=O)c1ccccc1)c1ccc(NCCN2CCOCC2)c([N+](=O)[O-])c1 (stereo not drawn),19.8,"29.1 µM [rising, single point]",–
Cc1ccc(C)c(S(=O)(=O)Nc2ccc3sc(C)nc3c2)c1,-28.9,"29.1 µM [falling, single point]",–
Cn1c(=O)n(C)c2cc(S(=O)(=O)N3CCCc4ccccc43)ccc21,-7.73,"0.82 µM [rising, single point]",–
N#Cc1ccc(CSc2ccc(S(=O)(=O)N3CCCC3)cn2)cc1,-0.937,"25.9 µM [rising, partial curve, poor fit]",–

# 2 successive records already listed:
Structure (SMILES),cell number change [%],AC50 [1],AC50 [2]
NC(=O)CC(NC(=O)c1ccccc1)c1ccc(NCCN2CCOCC2)c([N+](=O)[O-])c1 (stereo not drawn),19.8,"29.1 µM [rising, single point]",–
Cc1ccc(C)c(S(=O)(=O)Nc2ccc3sc(C)nc3c2)c1,-28.9,"29.1 µM [falling, single point]",–

# Source: PubChem BioAssay AID2685 (National Center for Advancing Translational Sciences (NCATS), 2010)
